Experimental data taken from PubChem BioAssay (EPA / NIEHS).
Several values for one entry are separate records, joined by “and”; a condition that tells them apart may be missing. Equal values may be shown once. This list was built around the results that the source calls inconclusive (neither active nor inactive); the mix of calls is not that of the screen. For some assays here: A potency beside an inconclusive call is a rough fit, not a confirmed value. Some structures have more than one record in an assay (separate samples or runs), and their calls can disagree. Activity calls are given as the source filed them. How the source made its calls: active means hit-call score of the fitted dose curve at least 0.9, where 1 is the maximum; inconclusive means response in the unintended direction; inactive means score below 0.9.

The chains behind the UniProt entries cited, without tags or fusion partners. Where a name states a change or a piece, a line headed by the entry shows the natural chain unless it says otherwise.
UniProt P21709: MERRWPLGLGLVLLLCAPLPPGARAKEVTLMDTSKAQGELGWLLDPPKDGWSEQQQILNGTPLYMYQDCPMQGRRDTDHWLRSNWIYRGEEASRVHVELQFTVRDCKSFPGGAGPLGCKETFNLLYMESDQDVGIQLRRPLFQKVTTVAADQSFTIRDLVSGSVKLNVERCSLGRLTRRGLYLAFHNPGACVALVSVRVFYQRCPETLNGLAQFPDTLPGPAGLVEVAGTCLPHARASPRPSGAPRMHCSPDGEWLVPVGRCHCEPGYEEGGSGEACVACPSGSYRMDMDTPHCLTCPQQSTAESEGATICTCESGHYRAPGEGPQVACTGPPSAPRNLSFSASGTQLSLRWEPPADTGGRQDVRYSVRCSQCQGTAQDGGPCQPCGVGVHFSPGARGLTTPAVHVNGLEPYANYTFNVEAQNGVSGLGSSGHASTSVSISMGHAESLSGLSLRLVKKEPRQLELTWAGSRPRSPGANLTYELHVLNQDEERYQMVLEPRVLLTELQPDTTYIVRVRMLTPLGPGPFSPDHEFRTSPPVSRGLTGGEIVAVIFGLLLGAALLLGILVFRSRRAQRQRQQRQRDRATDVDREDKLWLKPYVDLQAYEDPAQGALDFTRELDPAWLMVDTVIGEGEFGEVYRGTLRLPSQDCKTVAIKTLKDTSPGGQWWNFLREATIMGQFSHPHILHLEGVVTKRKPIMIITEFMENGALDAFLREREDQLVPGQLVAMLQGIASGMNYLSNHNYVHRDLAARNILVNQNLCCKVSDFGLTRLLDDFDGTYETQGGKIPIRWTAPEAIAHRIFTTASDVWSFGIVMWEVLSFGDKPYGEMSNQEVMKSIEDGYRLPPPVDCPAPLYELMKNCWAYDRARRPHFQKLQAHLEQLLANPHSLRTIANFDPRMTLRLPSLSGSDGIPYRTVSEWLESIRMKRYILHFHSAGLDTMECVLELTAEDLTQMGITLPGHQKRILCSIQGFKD
UniProt P42336, whole entry, looked up: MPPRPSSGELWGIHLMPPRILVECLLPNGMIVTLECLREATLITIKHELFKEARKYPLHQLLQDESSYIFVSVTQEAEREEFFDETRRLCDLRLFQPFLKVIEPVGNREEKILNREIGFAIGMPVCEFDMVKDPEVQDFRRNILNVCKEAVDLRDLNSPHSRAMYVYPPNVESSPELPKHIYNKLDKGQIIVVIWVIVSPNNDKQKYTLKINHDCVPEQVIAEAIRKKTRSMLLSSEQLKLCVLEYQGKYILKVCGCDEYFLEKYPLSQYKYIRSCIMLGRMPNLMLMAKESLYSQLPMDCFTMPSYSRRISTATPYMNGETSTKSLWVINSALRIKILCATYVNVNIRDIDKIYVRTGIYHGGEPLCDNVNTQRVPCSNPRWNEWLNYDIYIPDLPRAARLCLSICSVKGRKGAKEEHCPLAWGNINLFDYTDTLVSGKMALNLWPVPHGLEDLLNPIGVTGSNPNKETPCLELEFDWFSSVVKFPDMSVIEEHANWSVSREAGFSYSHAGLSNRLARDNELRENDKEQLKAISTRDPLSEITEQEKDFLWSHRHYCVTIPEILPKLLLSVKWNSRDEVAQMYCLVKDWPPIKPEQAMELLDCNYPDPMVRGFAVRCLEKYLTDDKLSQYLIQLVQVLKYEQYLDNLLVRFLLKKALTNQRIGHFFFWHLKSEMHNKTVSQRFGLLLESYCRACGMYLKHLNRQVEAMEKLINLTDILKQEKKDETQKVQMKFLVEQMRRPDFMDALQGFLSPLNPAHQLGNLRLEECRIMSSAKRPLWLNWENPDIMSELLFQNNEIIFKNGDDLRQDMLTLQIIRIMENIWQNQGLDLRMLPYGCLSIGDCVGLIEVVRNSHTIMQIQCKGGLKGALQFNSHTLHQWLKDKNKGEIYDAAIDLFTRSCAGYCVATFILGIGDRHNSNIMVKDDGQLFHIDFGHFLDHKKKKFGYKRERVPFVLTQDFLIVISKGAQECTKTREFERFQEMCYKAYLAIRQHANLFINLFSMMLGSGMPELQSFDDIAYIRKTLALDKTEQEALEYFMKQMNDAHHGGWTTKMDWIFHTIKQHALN
UniProt P62136, whole entry, looked up: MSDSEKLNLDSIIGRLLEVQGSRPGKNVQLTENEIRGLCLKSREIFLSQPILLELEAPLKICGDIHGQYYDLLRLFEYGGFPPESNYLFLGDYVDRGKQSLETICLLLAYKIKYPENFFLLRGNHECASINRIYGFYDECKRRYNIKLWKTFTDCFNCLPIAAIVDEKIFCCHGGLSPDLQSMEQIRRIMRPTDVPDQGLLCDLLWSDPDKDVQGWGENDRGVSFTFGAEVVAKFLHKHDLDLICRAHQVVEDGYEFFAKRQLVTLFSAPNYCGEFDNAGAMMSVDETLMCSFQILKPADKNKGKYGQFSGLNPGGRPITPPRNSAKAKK
UniProt P15204: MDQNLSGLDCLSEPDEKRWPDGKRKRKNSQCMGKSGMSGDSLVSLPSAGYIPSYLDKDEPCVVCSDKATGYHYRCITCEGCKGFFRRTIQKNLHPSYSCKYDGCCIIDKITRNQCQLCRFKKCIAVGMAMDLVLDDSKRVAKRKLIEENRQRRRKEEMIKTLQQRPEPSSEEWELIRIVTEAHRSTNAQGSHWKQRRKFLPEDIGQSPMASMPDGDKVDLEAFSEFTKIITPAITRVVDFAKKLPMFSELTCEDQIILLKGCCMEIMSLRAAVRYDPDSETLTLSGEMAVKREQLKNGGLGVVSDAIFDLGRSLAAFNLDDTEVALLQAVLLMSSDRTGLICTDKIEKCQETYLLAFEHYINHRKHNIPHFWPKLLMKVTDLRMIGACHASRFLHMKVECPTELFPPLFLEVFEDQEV
UniProt P57717: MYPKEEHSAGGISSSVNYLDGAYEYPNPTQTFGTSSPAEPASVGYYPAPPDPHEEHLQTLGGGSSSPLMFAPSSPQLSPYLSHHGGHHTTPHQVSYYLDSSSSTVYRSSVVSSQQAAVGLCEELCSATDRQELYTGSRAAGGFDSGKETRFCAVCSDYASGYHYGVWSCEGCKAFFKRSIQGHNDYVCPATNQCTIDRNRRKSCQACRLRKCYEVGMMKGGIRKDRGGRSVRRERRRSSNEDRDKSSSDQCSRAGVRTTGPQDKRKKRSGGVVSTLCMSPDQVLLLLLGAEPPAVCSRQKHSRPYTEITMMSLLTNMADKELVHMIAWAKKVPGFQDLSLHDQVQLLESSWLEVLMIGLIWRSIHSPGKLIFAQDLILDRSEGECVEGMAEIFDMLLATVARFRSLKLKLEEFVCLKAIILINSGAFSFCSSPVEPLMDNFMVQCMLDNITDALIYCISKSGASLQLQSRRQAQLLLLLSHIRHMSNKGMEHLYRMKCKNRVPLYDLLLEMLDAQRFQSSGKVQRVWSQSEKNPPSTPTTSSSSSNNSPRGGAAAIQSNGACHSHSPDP
UniProt P08684, whole entry, looked up: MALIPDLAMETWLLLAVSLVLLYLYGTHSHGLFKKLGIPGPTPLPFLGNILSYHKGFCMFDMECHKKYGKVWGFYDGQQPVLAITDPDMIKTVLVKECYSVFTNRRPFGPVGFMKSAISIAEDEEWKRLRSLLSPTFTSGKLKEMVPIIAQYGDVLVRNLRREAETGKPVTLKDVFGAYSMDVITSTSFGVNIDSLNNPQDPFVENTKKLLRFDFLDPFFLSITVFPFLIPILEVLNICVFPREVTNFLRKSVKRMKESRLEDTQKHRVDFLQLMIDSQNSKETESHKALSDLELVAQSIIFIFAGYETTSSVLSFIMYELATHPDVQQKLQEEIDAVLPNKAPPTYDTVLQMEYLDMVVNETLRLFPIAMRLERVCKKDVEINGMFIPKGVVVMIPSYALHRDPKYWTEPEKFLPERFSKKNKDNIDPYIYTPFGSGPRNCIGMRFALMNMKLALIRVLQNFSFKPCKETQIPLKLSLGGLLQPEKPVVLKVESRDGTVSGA
UniProt P29350: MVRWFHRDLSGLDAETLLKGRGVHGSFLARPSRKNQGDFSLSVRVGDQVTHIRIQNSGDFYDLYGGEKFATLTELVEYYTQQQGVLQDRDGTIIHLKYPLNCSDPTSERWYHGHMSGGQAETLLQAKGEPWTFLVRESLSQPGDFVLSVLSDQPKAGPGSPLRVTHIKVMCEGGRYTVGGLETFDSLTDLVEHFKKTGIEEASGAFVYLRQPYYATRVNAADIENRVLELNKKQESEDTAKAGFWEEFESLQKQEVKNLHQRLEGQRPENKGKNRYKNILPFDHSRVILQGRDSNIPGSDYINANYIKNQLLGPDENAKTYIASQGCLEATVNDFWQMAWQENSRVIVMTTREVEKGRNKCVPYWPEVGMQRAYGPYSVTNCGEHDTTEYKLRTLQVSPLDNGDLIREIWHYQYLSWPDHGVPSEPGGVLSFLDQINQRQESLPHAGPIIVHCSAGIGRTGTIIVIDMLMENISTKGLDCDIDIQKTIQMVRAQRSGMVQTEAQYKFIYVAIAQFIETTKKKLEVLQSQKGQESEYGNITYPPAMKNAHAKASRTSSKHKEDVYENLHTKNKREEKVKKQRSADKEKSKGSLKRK

Experiments:
NCBI gene 100848466 = experiment: NVS_NR_bPR: NovaScreen (NVS) Nuclear Receptor Binding Assay for bovine Progextron Receptor (PR) (AID 2283343);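 on AC50: actives lower bound radioligand signal below DMSO meaning displacement of the label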
In short: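 Bovine uterine membrane preparation; radioligand displacement read by scintillation counting 18 h after dosing. Primary screen single concentration, 25 uM, in duplicate; actives followed up in concentration series. Signal loss versus DMSO baseline.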

[1] = LTEA_HepaRG_LDH_cytotoxicity: Cytotoxicity Assessment in the Life Technologies and Expression Analysis (LTEA) Assay (AID 2283563);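 further: LDH activity released into spent culture medium as a marker of cell death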
In short: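 Human HepaRG hepatic cells are treated with test chemicals for 48 h at up to 100 uM in 0.5% DMSO. Cytotoxicity is scored from medium LDH against the vehicle control.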

[2] = read-out: alkyl and aryl transferase (GSTA2), GSTA2 (gene 2939); experiment: CLD_GSTA2_24hr: CellzDirect (CLD) Gene Expression Assay for alkyl and aryl transferase (GSTA2) at 24 hours (AID 2283693)
In short: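 Primary human hepatocytes (two donor preparations) dosed daily for two days with chemicals at multiple concentrations (vehicle 0.2% DMSO); GSTA2 mRNA at 24 h measured by qNPA chemiluminescence, gain-of-signal versus DMSO.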

[3] = biological target: human Ephrin type-A Receptor 1 (EphA1), EPHA1 (gene 2041) (UniProt P21709); experiment: NVS_ENZ_hEphA1: NovaScreen (NVS) Enzymatic Assay for human Ephrin type-A Receptor 1 (EphA1) (AID 2283158);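 further: activity is signal loss versus DMSO meaning EphA1 kinase inhibition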
In short: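 Biochemical kinase assay run cell-free; 1 h incubation; readout is fluorescence with mobility-shift separation of product. Concentration-response up to 50 uM for actives from a 25 uM screen.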

[4] = Tanguay_ZF_120hpf_PE_legacy: (Legacy) Oregon State University Tanguay Lab 120 Hour Post-fertilization zebrafish Assay for Pericardial Edema (AID 2283640);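 further: potency for increased incidence of pericardial edema versus DMSO baseline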
In short: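 Read-out is the presence or absence of pericardial edema at 120 hpf under brightfield, with gain of signal fitted against DMSO controls. Larvae (5D wild-type) were statically exposed at 28C with 0.64% final DMSO.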

[5] = biological target: human Phosphoinositide 3-kinase alpha (PI3Ka), PIK3CA (gene 5290) (UniProt P42336); experiment: NVS_ENZ_hPI3Ka: NovaScreen (NVS) Enzymatic Assay for human Phosphoinositide 3-kinase alpha (PI3Ka) (AID 2283196)
In short: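 Recombinant human PI3Kα with fluorescent substrate, 1 h, product separated by electrophoretic mobility shift; 25 uM duplicate screen, hits (e.g., 30% inhibition) retested singly up to 50 uM; loss of signal vs DMSO.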

[6] = ATG_M_32_XSP2: Attagene TRANS-FACTORIAL Multi-Species (XSP2) HepG2 Assay for M19 Transcription Factor (Internal Marker) (AID 2283826)
In short: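 Total RNA is taken from compound-treated HepG2 cells after 24 h and reverse-transcribed; reporter cDNA is PCR-amplified, end-labelled with 6-FAM, digested with HpaI for 2h at 37 C and sized by capillary electrophoresis. Activity is fitted in the positive direction against DMSO.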

[7] = system: zebrafish Peroxisome Proliferator-activated Receptor gamma (PPARg), gene 557037; experiment: ATG_zfPPARg_XSP2: Attagene TRANS-FACTORIAL Multi-Species (XSP2) HepG2 Assay for zebrafish Peroxisome Proliferator-activated Receptor gamma (PPARg) (AID 2283833);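 further: actives increase reporter signal over DMSO so AC50 reflects activation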
In short: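 Cell-based transactivation of a chimeric zebrafish PPARg-GAL4 receptor was assessed in transiently transfected HepG2 cells after 24 h of treatment. Reporter mRNA induction, detected fluorescently after RT-PCR, was analysed in the positive direction against DMSO.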

[8] = biological target: Serine/threonine-protein phosphatase PP1-alpha catalytic subunit (Homo sapiens) (UniProt P62136); experiment: NVS_ENZ_hPPP1CA: NovaScreen (NVS) Enzymatic Assay for human Protein Phosphatase 1 Aatalytic subunit Alpha (PPP1CA) (AID 2283200)
In short: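 Recombinant enzyme activity read by fluorescence with electrophoretic mobility shift separating substrate from product, 1.33 h after dosing; loss of signal vs DMSO baseline. Primary screen in duplicate at 25 uM; actives retested in concentration-response up to 50 uM.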

[9] = system: zebrafish Androgen Receptor (AR), gene 100005148; experiment: ATG_zfAR_XSP1: Attagene TRANS-FACTORIAL Multi-Species (XSP1) HepG2 Assay for zebrafish Androgen Receptor (AR) (AID 2283771)
In short: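 HepG2 cells were transiently transfected with a zebrafish AR-GAL4 reporter system and partially stimulated with 3 nM 6-alpha-fluorotestosterone. Reporter mRNA was measured after 24 h dosing by RT-PCR with capillary electrophoresis, and gain-of-signal was fitted relative to DMSO.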

[10] = ATG_M_06_XSP1: Attagene TRANS-FACTORIAL Multi-Species (XSP1) HepG2 Assay for M06 Transcription Factor (Internal Marker) (AID 2283790)
In short: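 Transfected HepG2 multi-reporter system treated 24 h in the presence of 3 nM 6-alpha-fluorotestosterone. The M06 internal marker transcript was quantified by RT-PCR with capillary electrophoresis as a background control, and gain of signal was scored versus DMSO.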

[11] = ATG_M_61_XSP1: Attagene TRANS-FACTORIAL Multi-Species (XSP1) HepG2 Assay for M61 Transcription Factor (Internal Marker) (AID 2283797)
In short: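 HepG2 cells transiently transfected with multiplexed GAL4-driven reporter units, dosed 24 h with 3 nM 6-alpha-fluorotestosterone present. Reporter mRNA quantified by RT-PCR, 6-FAM labelling, HpaI digestion and capillary electrophoresis; internal-marker background control, gain of signal versus DMSO.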

[12] = biological target: frog Thyroid hormone Receptor alpha (TRa), thra-a (gene 397942) (UniProt P15204); experiment: ATG_frTRa_XSP1: Attagene TRANS-FACTORIAL Multi-Species (XSP1) HepG2 Assay for frog Thyroid hormone Receptor alpha (TRa) (AID 2283804)
In short: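 HepG2 cells transiently transfected with frog TRa-GAL4 chimeric reporter units, dosed 24 hr with 3 nM 6-alpha-fluorotestosterone present; reporter mRNA quantified by RT-PCR, fluorescent labelling and capillary electrophoresis, gain of signal versus DMSO.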

[13] = biological target: zebrafish Estrogen Receptor (ER1), esr1 (gene 259252) (UniProt P57717); experiment: ATG_zfER1_XSP2: Attagene TRANS-FACTORIAL Multi-Species (XSP2) HepG2 Assay for zebrafish Estrogen Receptor (ER1) (AID 2283816)
In short: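 HepG2 cells transiently transfected with a GAL4-UAS reporter and a chimeric zebrafish ER1-Gal4 construct, dosed 24 h. Reporter mRNA quantified by RT-PCR, labelling, HpaI digestion and capillary electrophoresis, relative to DMSO.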

[14] = read-out: Cytochrome P450 3A4 (Homo sapiens) (UniProt P08684); experiment: CLD_CYP3A4_6hr: CellzDirect (CLD) Gene Expression Assay for xenobiotic metabolism (CYP3A4) at 6 hours (AID 2283680)
In short: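 Primary human hepatocytes (two donor preparations) dosed; CYP3A4 mRNA harvested at 6 h and quantified by qNPA chemiluminescence. Gain of signal fitted against 0.2% DMSO vehicle; cytotoxicity flagged by phase-contrast morphology.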

[15] = read-out: Cytochrome P450 3A4 (Homo sapiens) (UniProt P08684); experiment: CLD_CYP3A4_24hr: CellzDirect (CLD) Gene Expression Assay for xenobiotic metabolism (CYP3A4) at 24 hours (AID 2283689)
In short: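 Primary human hepatocytes from two donors dosed daily with fresh compound for two days, 0.2% DMSO vehicle. CYP3A4 mRNA at 24 hr by qNPA chemiluminescence; gain-of-signal fit versus DMSO, cytotoxicity flagged by morphology.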

[16] = CCTE_Mundy_HCI_hNP1_CellTiter: CCTE's Cell Titer-Glo 2 Assay in human neuroprogenitor cells for Viability, Mundy Lab (AID 2284241);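 on AC50: a hit is a drop in ATP luminescence versus DMSO meaning reduced viability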
In short: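 Viability read as luminescent ATP content (CellTiter-Glo, 30 min room temperature) twenty-four hours after dosing, relative to DMSO. Cells: WA09-derived hNP1 neuroprogenitors on poly-L-ornithine/laminin, plated 40 to 44 hours before chemical.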

[17] = CCTE_Shafer_MEA_dev_active_electrodes_number: CCTE's Neural Network Formation Assay for Number of Active Electrodes, Shafer Lab (AID 2284040);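 on AC50: potency for loss of active electrodes versus DMSO so lower counts are hits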
In short: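 Rat cortical primary cultures, 1.5 x 10^5 cells/well, PEI-coated MEA, laminin drop. Continuous exposure DIV 0–12; full media/compound change DIV 5, 9. Readout: electrodes with mean firing ≥5 spikes/min; AUC across days; loss vs DMSO.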

[18] = biological target: human Protein Tyrosine Phosphatase Non-receptor Type 6 (PTPN6), PTPN6 (gene 5777) (UniProt P29350); experiment: NVS_ENZ_hPTPN6: NovaScreen (NVS) Enzymatic Assay for human Protein Tyrosine Phosphatase Non-receptor Type 6 (PTPN6) (AID 2283210)
In short: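 Cell-free assay with recombinant PTPN6 expressed in SF9 cells, fluorescent substrate, product separated from substrate by electrophoretic mobility shift; read 1.33 hours after dosing. Primary screen in duplicate at 25 uM, actives retested in concentration series; DMSO baseline.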

[19] = Tanguay_ZF_120hpf_OTIC_legacy: (Legacy) Oregon State University Tanguay Lab 120 Hour Post-fertilization zebrafish Assay for Otic Vesicle Malformation (AID 2283639)
In short: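 Otic vesicle malformation is read as a yes/no morphology call at 120 hpf. Exposure is static at 28C with 0.64% (vol/vol) DMSO; embryos that die are excluded from non-mortality endpoints.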

C=C(C)[C@H]1Cc2c(ccc3c2O[C@@H]2COc4cc(OC)c(OC)cc4[C@@H]2C3=O)O1
outcome (NCBI gene 100848466): inactive

C=CCC1=C(C)[C@@H](OC(=O)[C@@H]2[C@@H](C=C(C)C)C2(C)C)CC1=O
AC50 [1]: inconclusive: 0.045 µM

COc1cc(Cl)c(OC)cc1Cl
outcome [2]: inactive

ClC1C(Cl)C(Cl)C(Cl)C(Cl)C1Cl (configuration not stated)
AC50 [3]: inconclusive: 25 µM
AC50 [4]: inconclusive: 4.13 µM

CCCCC(CC)COC(=O)c1ccc(C(=O)OCC(CC)CCCC)c(C(=O)OCC(CC)CCCC)c1 (configuration not stated)
AC50 [5]: inconclusive: 25 µM
outcome [6]: inactive
AC50 [7]: inconclusive: 836 nM and inconclusive: 100 µM

O=NN(c1ccccc1)c1ccccc1
AC50 [1]: inconclusive: 50 µM

COC(=O)c1ccccc1S(=O)(=O)NC(=O)Nc1nc(C)nc(OC)n1
AC50 [3]: inconclusive: 0.044 µM
AC50 [5]: inconclusive: 25 µM
AC50 (NCBI gene 100848466): inconclusive: 0.0774 µM

Nc1ccc([N+](=O)[O-])cc1
outcome [8]: inactive

CCCC1COC(Cn2cncn2)(c2ccc(Cl)cc2Cl)O1 (configuration not stated)
AC50 [4]: active: 30.4 µM
AC50 [9]: inconclusive: 19.5 µM
AC50 [10]: inconclusive: 100 µM
AC50 [11]: inconclusive: 100 µM
outcome [12]: inactive

CCOC(=O)C(O)(c1ccc(Cl)cc1)c1ccc(Cl)cc1
AC50 [13]: inconclusive: 33.4 µM

CSC(=O)c1c(C(F)F)nc(C(F)(F)F)c(C(=O)SC)c1CC(C)C
AC50 [10]: inconclusive: 99.5 µM
AC50 [11]: inconclusive: 99.5 µM
AC50 [12]: inconclusive: 99.5 µM
AC50 [7]: inconclusive: 100 µM

CCCCNC(=O)n1c(NC(=O)OC)nc2ccccc21
AC50 [8]: inconclusive: 25 µM
AC50 [14]: inconclusive: 0.00344 µM

CCOC1Oc2ccc(OS(C)(=O)=O)cc2C1(C)C (configuration not stated)
outcome [14]: inactive

CNC(=O)ON=C(C)SC
AC50 (NCBI gene 100848466): inconclusive: 6.03 µM
AC50 [14]: inconclusive: 20 µM
outcome [15]: inactive

CC(C1CC1)C(O)(Cn1cncn1)c1ccc(Cl)cc1 (configuration not stated)
AC50 [14]: inconclusive: 39.7 µM

Cc1nc(N(C)C)nc(OC(=O)N(C)C)c1C
AC50 [2]: inconclusive: 20 µM

CCC(C)c1cc([N+](=O)[O-])cc([N+](=O)[O-])c1OC(=O)C=C(C)C (configuration not stated)
AC50 [3]: inconclusive: 0.109 µM

CCOP(=S)(OCC)SCCSCC
AC50 [1]: inconclusive: 0.0841 µM
AC50 [16]: inconclusive: 0.000307 µM

CCOP(=S)(OCC)O/N=C(\C#N)c1ccccc1
AC50 [13]: active: 6.85 µM
outcome [13]: inactive
AC50 [6]: inconclusive: 100 µM

C#CC(C)(C)NC(=O)c1cc(Cl)cc(Cl)c1
outcome (NCBI gene 100848466): inactive
AC50 [14]: inconclusive: 20 µM
AC50 [9]: inconclusive: 180 µM
AC50 [12]: inconclusive: 0.274 µM
AC50 [13]: inconclusive: 0.0248 µM

CN1COCN(Cc2cnc(Cl)s2)C1=N[N+](=O)[O-]
AC50 [2]: inconclusive: 20 µM
outcome [17]: inactive
outcome [16]: inactive

O=C(O)c1nc(Cl)ccc1Cl
AC50 [15]: inconclusive: 3.97 µM
AC50 [2]: inconclusive: 20 µM

CC(C)(C)OOC(C)(C)CCC(C)(C)OOC(C)(C)C
AC50 [18]: active: 39 µM
AC50 [19]: inconclusive: 202 µM

CCCCOC(=O)c1ccccc1C(=O)O
AC50 (NCBI gene 100848466): inconclusive: 25 µM
AC50 [15]: inconclusive: 0.0415 µM

O=C(O)c1cc(Oc2ccc(C(F)(F)F)cc2Cl)ccc1[N+](=O)[O-]
outcome [3]: inactive
AC50 [2]: inconclusive: 0.0004 µM

CC(C)C1(C)N=C(c2nc3ccccc3cc2C(=O)O)NC1=O (configuration not stated)
AC50 [1]: inconclusive: 0.00323 µM

CCOc1nc(C(Cl)(Cl)Cl)ns1
AC50 [19]: inconclusive: 157 µM

ClC1=C(Cl)[C@]2(Cl)[C@@H]3[C@H]4C[C@H]([C@@H]5O[C@H]45)[C@@H]3[C@@]1(Cl)C2(Cl)Cl
AC50 [3]: inconclusive: 12.3 µM
